The list is a part of this screen's results and no random one: it is rich in T/C values a quarter to a half above the control, in often repeated tests (any T/C) and in doses without a T/C. Other doses and runs of a compound stand elsewhere. T/C is the treated group as % of the vehicle group. Some entries give survivors of the animals treated and no T/C: the source files T/C as zero there, which appears to mark a toxic dose or a test without result, not a measured value. Some survivor counts are full or nearly so, which does not show that the dose was tolerated: the source hardly ever lists a survival T/C far under the control, and the zero likely stands for such cases as well. Survivors were counted at the toxicity check, usually on the fifth day, unless a day is given; later deaths do not show. Schedule codes are those of the source, taken here to give the interval after Q, in days (D) or hours (H), and the number of doses after X. Some schedule codes hold Z or #, which are not explained here. For survival time, this PubChem deposit counts one and a half times the control or more as active, and values a quarter to a half above the control carry no call in these data; other NCI protocols may use other cut-offs. Some T/C values are followed by the survivors on the day toxicity was checked, most often the fifth; where none is given, no animal had died by that day.
System: CD2F1 mice, L1210 leukemia ip, survival T/C
Assay: NCI In Vivo Anticancer Drug Screen. Data for tumor model L1210 Leukemia (intraperitoneal) in CD2F1 (CDF1) mice
Settings: higher T/C = longer survival
Summary of the method: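 Ratio T/C, where T is the treated-group value and C the vehicle-dosed control value, from mice implanted with a transplantable tumor.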

[1] = T/C endpoint: mean survival time, dose: 100.0 mg/kg/injection, schedule: Q04DX003 (ip), vehicle: saline with Tween-80
[2] = T/C endpoint: mean survival time, dose: 200.0 mg/kg/injection, schedule: Q04DX003 (ip), vehicle: saline with Tween-80
[3] = T/C endpoint: mean survival time, dose: 400.0 mg/kg/injection, schedule: Q04DX003 (ip), vehicle: saline with Tween-80
[4] = T/C endpoint: mean survival time, dose: 400.0 mg/kg/injection, schedule: Q01DX001 (ip), vehicle: saline with Tween-80
[5] = T/C endpoint: mean survival time, dose: 200.0 mg/kg/injection, schedule: Q01DX009 (ip), vehicle: saline with Tween-80
[6] = T/C endpoint: mean survival time, dose: 400.0 mg/kg/injection, schedule: Q01DX009 (ip), vehicle: saline with Tween-80
[7] = T/C endpoint: mean survival time, dose: 400.0 mg/kg/injection, schedule: Q04DX002 (ip), vehicle: saline with Tween-80
[8] = T/C endpoint: mean survival time, dose: 100.0 mg/kg/injection, schedule: Q01DX009 (ip), vehicle: saline with Tween-80
[9] = T/C endpoint: mean survival time, dose: 50.0 mg/kg/injection, schedule: Q01DX009 (ip), vehicle: saline with Tween-80
[10] = T/C endpoint: mean survival time, dose: 25.0 mg/kg/injection, schedule: Q01DX009 (ip), vehicle: saline with Tween-80

Clc1nnc(Cl)c(Cl)c1Cl
survivor count (T/C endpoint: mean survival time, dose: 6.25 mg/kg/injection, schedule: Q04DX003 (ip), vehicle: saline with Tween-80): 2 of 6
survivor count (T/C endpoint: mean survival time, dose: 12.5 mg/kg/injection, schedule: Q04DX003 (ip), vehicle: saline with Tween-80): 2 of 6
survivor count (T/C endpoint: mean survival time, dose: 25.0 mg/kg/injection, schedule: Q04DX003 (ip), vehicle: saline with Tween-80): 0 of 6
survivor count (T/C endpoint: mean survival time, dose: 50.0 mg/kg/injection, schedule: Q04DX003 (ip), vehicle: saline with Tween-80): 0 of 6
survivor count [1]: 3 of 6
survivor count [2]: 0 of 6
survivor count [3]: 0 of 6

CCCc1nc2[nH]cnc(=S)c2[nH]1
survivor count (T/C endpoint: mean survival time, dose: 100.0 mg/kg/injection, schedule: Q01DX005 (ip), vehicle: other): 1 of 6
survivor count (T/C endpoint: mean survival time, dose: 200.0 mg/kg/injection, schedule: Q01DX005 (ip), vehicle: other): 2 of 6

O=C(CCl)Nc1cccc2c1CCCC2
survivor count [3]: 3 of 6

S=C(S)NNc1ccccc1
survivor count [1]: 6 of 6
survivor count [3]: 0 of 6

COC(=O)C1(C)CCCC2(C)C3CCC(C)(CCO)C(O)C3CCC12 (stereo not drawn)
survivor count (T/C endpoint: mean survival time, dose: 100.0 mg/kg/injection, schedule: Q01DX001 (ip), vehicle: saline with Tween-80): 6 of 6
survivor count (T/C endpoint: mean survival time, dose: 200.0 mg/kg/injection, schedule: Q01DX001 (ip), vehicle: saline with Tween-80): 6 of 6
survivor count [4]: 6 of 6

COc1ccc(N2C(N)=NC(N)=NC2(C)C)cc1
survivor count (T/C endpoint: mean survival time, dose: 100.0 mg/kg/injection, schedule: Q04DX002 (ip), vehicle: saline): 0 of 3
survivor count (T/C endpoint: mean survival time, dose: 200.0 mg/kg/injection, schedule: Q04DX002 (ip), vehicle: saline): 0 of 3

Cc1c(NC(=O)Nc2ccc(C3=NCCCN3)cc2)cccc1NC(=O)Nc1ccc(C2=NCCCN2)cc1
survivor count (T/C endpoint: mean survival time, dose: 62.0 mg/kg/injection, schedule: Q01DX Z (ip), vehicle: water): 0 of 6

COC(=O)N/N=C/Cc1ccccc1
survivor count [5]: 2 of 6
survivor count [6]: 0 of 6

N#CCCCCCCn1cnc2c(N)ncnc21
survivor count [4]: 3 of 6

O=C([O][Bi]([c]1ccccc1)[c]1ccccc1)c1ccccc1
survivor count (T/C endpoint: median survival time, dose: 50.0 mg/kg/injection, schedule: Q01DX009 (ip), vehicle: Klucel (hydroxypropylcellulose) (HPC)): 2 of 6
survivor count (T/C endpoint: median survival time, dose: 100.0 mg/kg/injection, schedule: Q01DX009 (ip), vehicle: Klucel (hydroxypropylcellulose) (HPC)): 0 of 6

CC[C@@H](C)[C@H]([C@H](CC(=O)N1CCC[C@@H]1[C@@H](OC)[C@H](C)C(=O)N[C@H](Cc1ccccc1)c1nccs1)OC)N(C)C(=O)[C@H](NC(=O)[C@@H](C(C)C)N(C)C)C(C)C
T/C (T/C endpoint: median survival time, dose: 3.25 micrograms/kg/injection, schedule: Q01DX005 (ip), vehicle: saline + alcohol): 138 % of control
T/C (T/C endpoint: median survival time, dose: 13.0 micrograms/kg/injection, schedule: Q01DX005 (ip), vehicle: saline + alcohol): 148 % of control

Cc1cc(NC(=O)CCc2ccc(N)cc2)ccc1S(=O)(=O)F
survivor count (T/C endpoint: mean survival time, dose: 50.0 mg/kg/injection, schedule: Q01DX009 (ip), vehicle: Klucel (hydroxypropylcellulose) (HPC)): 0 of 6
T/C (T/C endpoint: mean survival time, dose: 100.0 mg/kg/injection, schedule: Q01DX009 (ip), vehicle: Klucel (hydroxypropylcellulose) (HPC)): 125 % of control

C=CC1OC2CCCCC2O1 (stereo not drawn)
survivor count (T/C endpoint: mean survival time, dose: 200.0 mg/kg/injection, schedule: Q01DX001 (ip), vehicle: acetone): 0 of 6
survivor count (T/C endpoint: mean survival time, dose: 400.0 mg/kg/injection, schedule: Q01DX001 (ip), vehicle: acetone): 1 of 6

O=S1(=O)CC2(OCCO2)C1Cl (stereo not drawn)
survivor count [7]: 0 of 3

C[n+]1c(/C=C/c2c(O)ccc3ccccc23)ccc2ccccc21
survivor count [8]: 4 of 6
survivor count [5]: 3 of 6
survivor count [6]: 0 of 6

C/C=C/C[P+](C)(c1ccccc1)c1ccccc1
survivor count (T/C endpoint: mean survival time, dose: 12.5 mg/kg/injection, schedule: Q01DX009 (ip), vehicle: saline): 0 of 3
survivor count (T/C endpoint: mean survival time, dose: 25.0 mg/kg/injection, schedule: Q01DX009 (ip), vehicle: saline): 0 of 3
survivor count [9]: 0 of 3
survivor count (T/C endpoint: mean survival time, dose: 50.0 mg/kg/injection, schedule: Q01DX009 (ip), vehicle: saline): 0 of 3
survivor count [8]: 0 of 3
survivor count [5]: 0 of 3

Cc1cnc(/C=N\NC(N)=S)c2cccc(N)c12
T/C (T/C endpoint: mean survival time, dose: 6.25 mg/kg/injection, schedule: Q01DX009 (ip), vehicle: Klucel (hydroxypropylcellulose) (HPC)): 128 % of control
T/C (T/C endpoint: mean survival time, dose: 6.25 mg/kg/injection, schedule: Q01DX009 (ip), vehicle: saline with Tween-80): 137 % of control
T/C (T/C endpoint: mean survival time, dose: 12.5 mg/kg/injection, schedule: Q01DX009 (ip), vehicle: Klucel (hydroxypropylcellulose) (HPC)): 144 % of control
T/C (T/C endpoint: mean survival time, dose: 12.5 mg/kg/injection, schedule: Q01DX009 (ip), vehicle: saline with Tween-80): 147 % of control
T/C [10]: 127 % of control
survivor count [9]: 5 of 6
T/C (T/C endpoint: median survival time, dose: 10.8 mg/kg/injection, schedule: Q01DX005 (ip), vehicle: other): 134 % of control
T/C (T/C endpoint: median survival time, dose: 18.0 mg/kg/injection, schedule: Q01DX005 (ip), vehicle: other): 135 % of control
T/C (T/C endpoint: median survival time, dose: 30.0 mg/kg/injection, schedule: Q01DX005 (ip), vehicle: other): 137 % of control

CC(=O)NC1CCCCC1
survivor count [6]: 0 of 6

NC(=O)Nc1cc(NC(N)=O)cc(N(CCCl)CCCl)c1
T/C (T/C endpoint: mean survival time, dose: 20.0 mg/kg/injection, schedule: Q01DX009 (ip), vehicle: Klucel (hydroxypropylcellulose) (HPC)): 128 % of control
T/C (T/C endpoint: mean survival time, dose: 40.0 mg/kg/injection, schedule: Q01DX009 (ip), vehicle: Klucel (hydroxypropylcellulose) (HPC)): 130 % of control
survivor count (T/C endpoint: mean survival time, dose: 80.0 mg/kg/injection, schedule: Q01DX009 (ip), vehicle: Klucel (hydroxypropylcellulose) (HPC)): 0 of 6

COc1cc(OC)c(NC(=O)Oc2ccc(C=O)cc2OC)cc1Cl
survivor count [5]: 3 of 3

CN(C)N=Nc1ccccc1[N+](=O)[O-]
T/C (T/C endpoint: mean survival time, dose: 119.0 mg/kg/injection, schedule: Q01DX009 (ip), vehicle: saline): 143 % of control [5 of 6 alive]
survivor count (T/C endpoint: mean survival time, dose: 178.0 mg/kg/injection, schedule: Q01DX001 (ip), vehicle: saline): 3 of 6
survivor count (T/C endpoint: mean survival time, dose: 178.0 mg/kg/injection, schedule: Q01DX009 (ip), vehicle: saline): 4 of 6
T/C (T/C endpoint: mean survival time, dose: 267.0 mg/kg/injection, schedule: Q01DX001 (ip), vehicle: saline): 138 % of control [4 of 6 alive]
survivor count (T/C endpoint: mean survival time, dose: 267.0 mg/kg/injection, schedule: Q01DX009 (ip), vehicle: saline): 4 of 6
survivor count (T/C endpoint: mean survival time, dose: 400.0 mg/kg/injection, schedule: Q01DX001 (ip), vehicle: saline): 3 of 6

CC(=O)[O][Hg][O]C(C)=O
survivor count (T/C endpoint: mean survival time, dose: 10.0 mg/kg/injection, schedule: Q04DX003 (ip), vehicle: saline with Tween-80): 0 of 6
survivor count (T/C endpoint: mean survival time, dose: 20.0 mg/kg/injection, schedule: Q04DX003 (ip), vehicle: saline with Tween-80): 0 of 6
survivor count [1]: 0 of 6
survivor count [2]: 0 of 6
survivor count [3]: 0 of 6

CCCCCCCCCCCCSC#N
survivor count (T/C endpoint: mean survival time, dose: 400.0 mg/kg/injection, schedule: Q04DX002 (ip), vehicle: Klucel (hydroxypropylcellulose) (HPC)): 2 of 3
survivor count [7]: 3 of 3

CSc1nc(C)cc(Cl)n1
survivor count [3]: 2 of 6

O=[N+]([O-])c1ccc2nc(Cl)sc2c1
survivor count [2]: 3 of 6
survivor count [3]: 0 of 6

NS(=O)(=O)c1ccc(Cl)c(Cl)c1
survivor count [6]: 3 of 6

CC(=O)OCC1OC(N=C=S)C(OC(C)=O)C(OC(C)=O)C1OC(C)=O (stereo not drawn)
survivor count [8]: 0 of 3
survivor count [5]: 0 of 3

O=C(C=C(C(F)(F)F)C(F)(F)F)c1ccc(C(=O)C=C(C(F)(F)F)C(F)(F)F)cc1
survivor count [3]: 0 of 6

N#C/C(=C\c1c(O)ccc2ccccc12)c1ccc([N+](=O)[O-])cc1
T/C [10]: 135 % of control
T/C [9]: 135 % of control
T/C [8]: 140 % of control [5 of 6 alive]
survivor count [5]: 3 of 6
survivor count [6]: 3 of 6
